Measurements as given in US5693492A, “DNA encoding glutamate gated chloride channels” (priority 1995, dated 1997).
At least one compound was matched to its structure with a doubt left.

Amino acid sequences for entries named in this document (tags omitted). Residues count along the entry.
UniProt Q94900, 23-456 I27V/K241R/S345N: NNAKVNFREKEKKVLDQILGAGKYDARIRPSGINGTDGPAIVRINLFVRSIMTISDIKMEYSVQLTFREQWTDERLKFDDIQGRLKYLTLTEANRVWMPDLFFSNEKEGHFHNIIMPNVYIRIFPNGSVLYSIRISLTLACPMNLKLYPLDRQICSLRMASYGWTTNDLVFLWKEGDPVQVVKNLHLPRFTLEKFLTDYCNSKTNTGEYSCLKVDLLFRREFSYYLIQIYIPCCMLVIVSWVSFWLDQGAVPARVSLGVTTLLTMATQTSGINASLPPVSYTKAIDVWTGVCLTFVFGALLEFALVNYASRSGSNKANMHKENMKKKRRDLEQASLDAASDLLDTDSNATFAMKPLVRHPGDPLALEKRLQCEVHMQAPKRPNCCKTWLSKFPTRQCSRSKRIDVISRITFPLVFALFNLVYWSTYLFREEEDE

Target: T1, Dros GluCl (Drosophila melanogaster, UniProt Q94900, I27V/K241R)
T1 construct: Clone pDros GluCl was linearized by digestion with the restriction endonuclease SalI; expressed in transfected cells; host or cells: Xenopus laevis oocytes injected with in vitro transcribed Dros GluCl RNA
Format: cell-based
Conditions: oocytes expressing Dros GluCl
Experimental: Clone pDros GluCl was linearized by digestion with the restriction endonuclease SalI. In vitro RNA was synthesized from 0.5 μg of this plasmid in a reaction containing 40 mM Tris-HCl, pH 7.5; 6 mM MgCl2; 2 mM Spermidine; 10 mM NaCl; 10 mM DTT; 0.05 mg/ml Bovine Serum Albumin; 2 units/ul RNasin; 800 μM each ATP, CTP, and UTP; 200 μMGTP; 800 μM m7G(5')ppp(5')G; 5 μCi ^32 P-CTp; and 50 units T3 RNA polymerase in a final volume of 50 μl. The reaction was incubated for 3 hours at 37° C. followed by an additional 15 minutes incubation with 20 units RNase free DNase and extraction with phenol, phenol:chloroform, and chloroform. […]
Recordings were made at room temperature in standard frog saline consisting of (mM): NaCl 115, KCl 2, MgCl2 1, CaCl2 1.8, HEPES 10, adjusted to pH 7.5 with NaOH. […] Data were acquired and analyzed using PCLAMP with a TL-1 interface (Axon Instruments, Foster City, Calif.). Membrane current at a holding potential of -80 mV was recorded. The amplitude of drug-sensitive current was determined by subtracting the holding current at -80 mV from the peak current obtained in the presence of drug. […] Current/voltage relationships (I/V) and reversal potentials (Erev) were determined using a 1-3 sec voltage ramp over the voltage range of -110 to +80 mV. […]

`N[C@@H](CCC(=O)O)C(=O)O` [glutamate] was tested, and the Hill coefficient (glutamate concentration-response) was 1.3 and the “Activation of membrane current (in words)” value was “rapidly activating and rapidly desensitizing”.
